Our source for the binding values is paper PMC9106349.

By UniProt entry, the sequences of proteins in these tests, tags left out.
UniProt Q9ULV0: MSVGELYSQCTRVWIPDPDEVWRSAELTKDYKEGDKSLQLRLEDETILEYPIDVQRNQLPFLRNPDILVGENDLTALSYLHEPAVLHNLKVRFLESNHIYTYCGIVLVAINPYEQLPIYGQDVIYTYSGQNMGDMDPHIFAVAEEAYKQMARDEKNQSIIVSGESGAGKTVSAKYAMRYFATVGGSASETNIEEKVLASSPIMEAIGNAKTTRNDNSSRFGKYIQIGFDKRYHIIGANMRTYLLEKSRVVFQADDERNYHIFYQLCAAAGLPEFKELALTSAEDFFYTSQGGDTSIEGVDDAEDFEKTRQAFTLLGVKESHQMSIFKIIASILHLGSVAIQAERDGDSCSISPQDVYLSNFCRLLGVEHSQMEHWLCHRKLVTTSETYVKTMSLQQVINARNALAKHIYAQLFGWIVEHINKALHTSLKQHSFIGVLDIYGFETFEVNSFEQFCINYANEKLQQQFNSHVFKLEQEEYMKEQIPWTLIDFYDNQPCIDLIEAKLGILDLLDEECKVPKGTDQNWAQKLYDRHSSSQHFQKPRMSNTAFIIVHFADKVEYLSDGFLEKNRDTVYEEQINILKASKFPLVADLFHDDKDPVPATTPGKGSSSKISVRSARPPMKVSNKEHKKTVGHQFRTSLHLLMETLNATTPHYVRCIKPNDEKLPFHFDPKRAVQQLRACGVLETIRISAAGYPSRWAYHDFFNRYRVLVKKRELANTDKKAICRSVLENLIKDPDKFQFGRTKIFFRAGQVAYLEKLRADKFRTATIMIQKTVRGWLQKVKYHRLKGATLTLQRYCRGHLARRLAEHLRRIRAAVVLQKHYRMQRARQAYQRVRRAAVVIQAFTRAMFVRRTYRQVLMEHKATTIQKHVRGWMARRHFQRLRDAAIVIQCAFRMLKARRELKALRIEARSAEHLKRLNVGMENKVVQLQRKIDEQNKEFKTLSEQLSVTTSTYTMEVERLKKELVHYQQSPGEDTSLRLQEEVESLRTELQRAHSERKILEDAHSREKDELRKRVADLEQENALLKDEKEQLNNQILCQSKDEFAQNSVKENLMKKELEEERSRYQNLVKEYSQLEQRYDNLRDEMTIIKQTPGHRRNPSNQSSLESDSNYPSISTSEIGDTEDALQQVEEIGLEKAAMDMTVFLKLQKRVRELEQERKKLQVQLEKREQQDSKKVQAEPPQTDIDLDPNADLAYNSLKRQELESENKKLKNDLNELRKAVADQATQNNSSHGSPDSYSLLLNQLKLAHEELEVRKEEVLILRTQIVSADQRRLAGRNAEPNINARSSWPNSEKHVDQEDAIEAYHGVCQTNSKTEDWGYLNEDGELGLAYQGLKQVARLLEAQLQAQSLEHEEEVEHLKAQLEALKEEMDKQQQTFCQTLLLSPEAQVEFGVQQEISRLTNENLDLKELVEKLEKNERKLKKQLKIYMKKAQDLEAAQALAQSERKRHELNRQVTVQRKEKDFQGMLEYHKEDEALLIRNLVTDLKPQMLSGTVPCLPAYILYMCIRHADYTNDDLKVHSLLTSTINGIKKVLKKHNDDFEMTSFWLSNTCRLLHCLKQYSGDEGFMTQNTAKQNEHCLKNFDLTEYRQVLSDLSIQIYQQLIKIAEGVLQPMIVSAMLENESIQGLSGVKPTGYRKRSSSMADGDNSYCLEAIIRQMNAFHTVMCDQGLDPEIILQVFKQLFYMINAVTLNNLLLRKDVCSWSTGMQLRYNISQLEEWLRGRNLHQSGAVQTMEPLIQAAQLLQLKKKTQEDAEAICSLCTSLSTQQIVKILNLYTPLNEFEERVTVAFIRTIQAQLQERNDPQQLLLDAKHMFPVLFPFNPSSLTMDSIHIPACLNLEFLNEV

No constants are given. Whether binding was seen depends on the method and setting. Binding seen in cells or lysates may run through a third protein. A yes stands for co-enrichment or nearness to the bait. Other partners may have been found. Tags and fused reporters may be left off the sequences shown.

The target of the test is T1, myc-tagged UNC45A WT (human) (UniProt Q9H3U1).
T1 sequence: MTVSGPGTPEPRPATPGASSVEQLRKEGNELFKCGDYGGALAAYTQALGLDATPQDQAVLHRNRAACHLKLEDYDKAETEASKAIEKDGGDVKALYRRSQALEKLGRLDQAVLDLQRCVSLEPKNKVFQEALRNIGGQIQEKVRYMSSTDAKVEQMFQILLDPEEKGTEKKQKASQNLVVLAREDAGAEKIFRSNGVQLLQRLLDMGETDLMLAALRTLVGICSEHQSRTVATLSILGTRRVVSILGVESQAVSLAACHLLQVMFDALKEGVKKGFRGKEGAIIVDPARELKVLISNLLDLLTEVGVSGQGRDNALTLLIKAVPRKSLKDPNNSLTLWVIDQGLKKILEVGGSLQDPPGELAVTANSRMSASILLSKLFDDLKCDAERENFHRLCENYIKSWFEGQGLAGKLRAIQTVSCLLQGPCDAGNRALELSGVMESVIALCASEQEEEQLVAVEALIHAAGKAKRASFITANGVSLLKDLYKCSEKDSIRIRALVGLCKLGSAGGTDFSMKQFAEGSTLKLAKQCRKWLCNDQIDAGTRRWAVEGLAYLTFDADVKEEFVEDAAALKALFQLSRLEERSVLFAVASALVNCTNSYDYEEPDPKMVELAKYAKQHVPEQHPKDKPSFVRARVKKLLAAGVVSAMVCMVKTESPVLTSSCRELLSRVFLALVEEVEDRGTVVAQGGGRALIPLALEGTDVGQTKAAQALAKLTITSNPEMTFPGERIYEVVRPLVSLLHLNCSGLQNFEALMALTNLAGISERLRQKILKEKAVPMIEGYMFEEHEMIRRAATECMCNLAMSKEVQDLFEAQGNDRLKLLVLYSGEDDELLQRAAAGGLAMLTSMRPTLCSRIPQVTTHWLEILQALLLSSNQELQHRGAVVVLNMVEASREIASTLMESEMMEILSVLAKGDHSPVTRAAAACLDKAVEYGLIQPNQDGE
Briefly: affinity purification with mass spectrometry; lysates of myc-tagged UNC45A Caco-2 cells and myc-tagged empty vector control cells immunoprecipitated with myc-Ab (μMACS c-myc Isolation Kit); lysis buffer 10 mM Tris/HCl, 150 mM NaCl, 0.5 mM EDTA, 0.5% NP40; Orbitrap mass spectrometry, 3 independent pull-down assays.

Regarding myosin VB (from UniProt Q9ULV0 1-1848), the binding result is reported as “binds”.
